For two molecules, binding results are on record in paper PMC6115016.

Sequences of proteins named here, by UniProt entry; tags and fusion partners are left off.
UniProt Q14160: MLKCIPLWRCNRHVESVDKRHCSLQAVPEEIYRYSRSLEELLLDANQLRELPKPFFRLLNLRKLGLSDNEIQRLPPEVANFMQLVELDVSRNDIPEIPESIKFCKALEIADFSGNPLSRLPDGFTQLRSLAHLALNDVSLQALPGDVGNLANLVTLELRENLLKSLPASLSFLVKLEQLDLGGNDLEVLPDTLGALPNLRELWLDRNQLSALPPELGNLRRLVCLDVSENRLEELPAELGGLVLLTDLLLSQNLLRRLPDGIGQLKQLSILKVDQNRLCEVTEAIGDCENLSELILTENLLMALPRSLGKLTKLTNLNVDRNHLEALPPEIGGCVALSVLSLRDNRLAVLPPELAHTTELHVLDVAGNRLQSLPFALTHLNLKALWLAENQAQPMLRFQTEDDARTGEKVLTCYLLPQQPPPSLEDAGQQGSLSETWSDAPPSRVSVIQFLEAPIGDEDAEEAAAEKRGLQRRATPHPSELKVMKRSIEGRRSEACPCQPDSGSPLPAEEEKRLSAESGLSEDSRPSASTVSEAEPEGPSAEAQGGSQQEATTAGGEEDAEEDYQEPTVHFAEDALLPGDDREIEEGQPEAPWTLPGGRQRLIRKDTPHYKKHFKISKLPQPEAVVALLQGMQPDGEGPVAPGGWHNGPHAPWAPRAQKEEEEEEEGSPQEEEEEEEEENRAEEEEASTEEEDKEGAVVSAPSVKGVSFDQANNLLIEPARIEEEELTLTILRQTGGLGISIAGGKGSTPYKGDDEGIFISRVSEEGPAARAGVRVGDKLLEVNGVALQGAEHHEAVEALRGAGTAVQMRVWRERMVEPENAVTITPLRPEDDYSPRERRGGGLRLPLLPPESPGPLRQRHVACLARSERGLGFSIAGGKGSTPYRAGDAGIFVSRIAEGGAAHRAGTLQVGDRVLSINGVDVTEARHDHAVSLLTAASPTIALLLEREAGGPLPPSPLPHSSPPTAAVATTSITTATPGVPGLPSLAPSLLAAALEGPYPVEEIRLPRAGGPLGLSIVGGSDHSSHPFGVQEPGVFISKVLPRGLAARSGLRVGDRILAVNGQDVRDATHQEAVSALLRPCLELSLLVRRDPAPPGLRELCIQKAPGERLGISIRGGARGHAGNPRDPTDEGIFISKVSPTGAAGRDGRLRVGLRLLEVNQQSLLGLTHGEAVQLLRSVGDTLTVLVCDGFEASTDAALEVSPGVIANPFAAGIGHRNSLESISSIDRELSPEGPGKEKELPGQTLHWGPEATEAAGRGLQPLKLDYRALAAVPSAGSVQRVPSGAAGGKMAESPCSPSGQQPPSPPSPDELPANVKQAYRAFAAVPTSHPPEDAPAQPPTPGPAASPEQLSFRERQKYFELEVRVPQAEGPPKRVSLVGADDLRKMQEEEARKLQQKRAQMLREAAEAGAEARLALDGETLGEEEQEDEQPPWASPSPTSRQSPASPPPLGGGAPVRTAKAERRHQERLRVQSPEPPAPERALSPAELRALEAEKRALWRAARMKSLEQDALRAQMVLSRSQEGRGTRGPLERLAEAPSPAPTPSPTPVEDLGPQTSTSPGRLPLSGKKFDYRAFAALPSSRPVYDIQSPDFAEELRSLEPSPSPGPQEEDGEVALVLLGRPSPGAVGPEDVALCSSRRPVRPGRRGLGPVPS
UniProt Q14980: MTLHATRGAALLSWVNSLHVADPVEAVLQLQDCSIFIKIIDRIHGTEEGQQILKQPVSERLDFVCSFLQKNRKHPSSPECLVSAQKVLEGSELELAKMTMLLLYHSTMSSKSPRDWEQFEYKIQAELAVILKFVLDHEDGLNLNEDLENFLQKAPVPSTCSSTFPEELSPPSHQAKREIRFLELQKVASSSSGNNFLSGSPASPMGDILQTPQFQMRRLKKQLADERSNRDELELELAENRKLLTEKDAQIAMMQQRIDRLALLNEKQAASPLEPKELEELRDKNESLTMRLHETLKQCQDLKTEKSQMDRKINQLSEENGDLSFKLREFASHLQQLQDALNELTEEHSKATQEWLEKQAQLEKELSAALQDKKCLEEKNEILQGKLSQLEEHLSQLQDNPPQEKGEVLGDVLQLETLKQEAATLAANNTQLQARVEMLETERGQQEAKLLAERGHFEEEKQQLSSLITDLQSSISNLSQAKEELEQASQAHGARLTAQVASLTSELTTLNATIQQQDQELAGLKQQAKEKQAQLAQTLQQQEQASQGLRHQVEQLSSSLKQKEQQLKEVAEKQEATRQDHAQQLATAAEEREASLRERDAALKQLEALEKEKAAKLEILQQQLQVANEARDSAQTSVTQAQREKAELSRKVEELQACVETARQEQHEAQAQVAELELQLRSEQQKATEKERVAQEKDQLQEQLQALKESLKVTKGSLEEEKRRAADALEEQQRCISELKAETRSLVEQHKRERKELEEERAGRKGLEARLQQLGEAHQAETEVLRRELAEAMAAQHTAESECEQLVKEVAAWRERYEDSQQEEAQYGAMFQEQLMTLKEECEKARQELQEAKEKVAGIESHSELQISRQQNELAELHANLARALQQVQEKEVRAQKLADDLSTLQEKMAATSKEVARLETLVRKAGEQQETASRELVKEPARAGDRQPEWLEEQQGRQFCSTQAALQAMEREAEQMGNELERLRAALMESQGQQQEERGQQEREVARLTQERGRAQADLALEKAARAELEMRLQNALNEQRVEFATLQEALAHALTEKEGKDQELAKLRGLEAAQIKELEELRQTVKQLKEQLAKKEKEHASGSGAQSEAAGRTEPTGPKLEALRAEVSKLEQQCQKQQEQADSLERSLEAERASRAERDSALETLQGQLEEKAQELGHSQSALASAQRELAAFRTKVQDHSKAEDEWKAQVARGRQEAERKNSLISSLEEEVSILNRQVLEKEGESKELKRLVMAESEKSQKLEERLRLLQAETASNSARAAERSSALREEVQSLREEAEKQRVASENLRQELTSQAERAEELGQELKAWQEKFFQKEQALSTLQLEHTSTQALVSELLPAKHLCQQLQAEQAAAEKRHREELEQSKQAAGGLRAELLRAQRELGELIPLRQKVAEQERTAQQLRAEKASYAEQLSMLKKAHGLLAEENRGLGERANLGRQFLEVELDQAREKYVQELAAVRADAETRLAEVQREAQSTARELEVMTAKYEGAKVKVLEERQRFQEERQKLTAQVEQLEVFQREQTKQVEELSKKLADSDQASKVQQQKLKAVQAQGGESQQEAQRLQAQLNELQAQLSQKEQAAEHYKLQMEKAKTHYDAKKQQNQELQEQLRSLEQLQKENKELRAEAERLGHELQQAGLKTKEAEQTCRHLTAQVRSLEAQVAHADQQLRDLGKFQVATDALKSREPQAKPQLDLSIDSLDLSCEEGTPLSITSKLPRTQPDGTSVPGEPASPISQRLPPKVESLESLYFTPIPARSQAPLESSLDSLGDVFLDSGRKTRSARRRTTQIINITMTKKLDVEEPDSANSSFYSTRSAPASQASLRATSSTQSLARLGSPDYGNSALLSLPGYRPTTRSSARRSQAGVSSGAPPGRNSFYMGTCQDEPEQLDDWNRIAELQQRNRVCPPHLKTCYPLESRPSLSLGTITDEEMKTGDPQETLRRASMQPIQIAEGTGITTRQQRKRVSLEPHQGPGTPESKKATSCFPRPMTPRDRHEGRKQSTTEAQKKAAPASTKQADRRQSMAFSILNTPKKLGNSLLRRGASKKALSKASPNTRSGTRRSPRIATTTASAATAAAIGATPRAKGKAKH

The target in experiment [1] is T1, leucine-glycine-asparagine repeat protein (LGN) (human (endogenous in RWPE-1)) (UniProt P81274).
T1 sequence: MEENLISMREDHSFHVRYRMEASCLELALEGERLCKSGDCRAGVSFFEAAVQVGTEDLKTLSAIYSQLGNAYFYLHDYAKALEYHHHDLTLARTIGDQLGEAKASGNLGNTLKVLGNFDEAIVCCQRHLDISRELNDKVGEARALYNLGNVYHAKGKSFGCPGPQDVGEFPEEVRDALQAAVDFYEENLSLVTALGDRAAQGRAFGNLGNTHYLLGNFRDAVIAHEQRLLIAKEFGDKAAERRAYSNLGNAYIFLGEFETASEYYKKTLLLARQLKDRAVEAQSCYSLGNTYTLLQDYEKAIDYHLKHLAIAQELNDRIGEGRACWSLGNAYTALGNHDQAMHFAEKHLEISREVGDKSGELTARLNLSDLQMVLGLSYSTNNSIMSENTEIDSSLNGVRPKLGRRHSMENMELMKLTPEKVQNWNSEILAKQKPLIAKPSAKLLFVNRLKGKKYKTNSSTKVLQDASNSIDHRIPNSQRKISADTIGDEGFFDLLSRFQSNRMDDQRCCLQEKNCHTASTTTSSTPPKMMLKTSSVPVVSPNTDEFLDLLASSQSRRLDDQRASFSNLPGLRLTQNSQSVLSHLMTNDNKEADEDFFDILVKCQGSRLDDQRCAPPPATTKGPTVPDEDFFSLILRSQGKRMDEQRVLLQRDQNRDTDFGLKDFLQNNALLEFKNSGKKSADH
Description: co-IP; endogenous proteins in RWPE-1 cell lysate (50mM Tris-HCl, 150mM NaCl, 1mM EDTA, 0.25% TritonX-100, pH 7.4), 1 ug primary antibody 6 h at 4°C, Protein G-Agarose, immunoblot; also compared in E-cadherin knockdown and SCRIB knockdown cells. On the technique in general: In western blotting, separated proteins are transferred to a membrane and probed.

Experiment [2] concerns the target Scribble (SCRIB) (human (endogenous in RWPE-1)) (UniProt Q14160). The experiment is described as above.

No constants are given. Whether binding was seen depends on the method and setting. Binding seen in cells or lysates may run through a third protein. Some binding calls cover weakened binding; strength is not graded here.

In the case of “nuclear and mitotic apparatus (NUMA) (from UniProt Q14980 1-2115)”, the binding result in experiment [1] is recorded as “binds”.

B1: leucine-glycine-asparagine repeat protein (LGN) (protein, UniProt P81274 1-684)
chain: MEENLISMREDHSFHVRYRMEASCLELALEGERLCKSGDCRAGVSFFEAAVQVGTEDLKTLSAIYSQLGNAYFYLHDYAKALEYHHHDLTLARTIGDQLGEAKASGNLGNTLKVLGNFDEAIVCCQRHLDISRELNDKVGEARALYNLGNVYHAKGKSFGCPGPQDVGEFPEEVRDALQAAVDFYEENLSLVTALGDRAAQGRAFGNLGNTHYLLGNFRDAVIAHEQRLLIAKEFGDKAAERRAYSNLGNAYIFLGEFETASEYYKKTLLLARQLKDRAVEAQSCYSLGNTYTLLQDYEKAIDYHLKHLAIAQELNDRIGEGRACWSLGNAYTALGNHDQAMHFAEKHLEISREVGDKSGELTARLNLSDLQMVLGLSYSTNNSIMSENTEIDSSLNGVRPKLGRRHSMENMELMKLTPEKVQNWNSEILAKQKPLIAKPSAKLLFVNRLKGKKYKTNSSTKVLQDASNSIDHRIPNSQRKISADTIGDEGFFDLLSRFQSNRMDDQRCCLQEKNCHTASTTTSSTPPKMMLKTSSVPVVSPNTDEFLDLLASSQSRRLDDQRASFSNLPGLRLTQNSQSVLSHLMTNDNKEADEDFFDILVKCQGSRLDDQRCAPPPATTKGPTVPDEDFFSLILRSQGKRMDEQRVLLQRDQNRDTDFGLKDFLQNNALLEFKNSGKKSADH
Turning to B1, in experiment [2], the binding result is “binds”.
